# Screening data, single-dose tests

The values are deposited in ChEMBL (CHEMBL3988442, “University of Dundee, Small-Polar-MMV Screening Library” (2021)).

Values are the deposited “Percent Effect”, in %. The record does not define 0% and 100%; most values in the screen are far below 50% and negative numbers occur (in some assays of this library far below -100). Compounds were drawn at random from those tested, without regard to their results. Two or more numbers in one place are separate tests of the same structure; such repeats can differ widely.

Mtb glucose medium: 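Phenotypic screen: M. tuberculosis growth, glucose 7H9 medium, 3 days; the read-out is not stated. Tested at 50 µM. Higher reads as more growth inhibition (inferred: compounds with an IC50 in retests scored well above the rest). About 69,000 compounds were tested under these conditions; 1.1% (about 760) showed 50% or more at least once.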
Mtb cholesterol medium: 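Growth of Mycobacterium tuberculosis over 4 days (cholesterol / DPPC medium with tyloxapol); the read-out is not stated. Concentration: 50 µM. Higher reads as more growth inhibition (inferred: compounds with an IC50 in retests scored well above the rest). Of about 69,000 compounds tested this way, about 370 (0.54%) reached 50% or more in at least one test.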

{"structure": "Cc1nc(CNC(=O)c2cc(COc3ccccc3F)[nH]n2)n[nH]1", "Mtb glucose medium": 0.3162, "Mtb cholesterol medium": -1.928}
{"structure": "Cn1cc(C2=NOC(C(=O)NC3(c4cccc(F)c4)CCCC3)C2)cn1", "stereo": "stereo not drawn", "Mtb glucose medium": 4.332, "Mtb cholesterol medium": "2.162 & -14.04"}
{"structure": "CCc1nc2n(n1)CC(NCc1nc3ccccc3o1)CC2", "stereo": "stereo not drawn", "Mtb glucose medium": "-5.98 & -8.544", "Mtb cholesterol medium": 23.04}
{"structure": "CNC(=O)CCc1cc(C2CCCN2C(=O)CO)nc(C)n1", "stereo": "stereo not drawn", "Mtb glucose medium": -21.17, "Mtb cholesterol medium": "-15.98 & -4.939"}
{"structure": "[H][C@@]12CCN(S(=O)(=O)CCC)[C@]1([H])CC[C@H](c1nc(C)no1)O2", "Mtb glucose medium": -18.63, "Mtb cholesterol medium": -30.67}
{"structure": "[H][C@@]12CS(=O)(=O)C[C@]1([H])N(C(=O)NCCc1ccc(OC)cc1)CCN2C", "Mtb glucose medium": -23.97, "Mtb cholesterol medium": -0.7926}
{"structure": "COc1ccc(CNC(=O)c2ccc(Br)cn2)cc1", "Mtb glucose medium": 40.77, "Mtb cholesterol medium": 45.82}
{"structure": "CCn1nc(C(C)C)cc1C(=O)N1CCOc2ccc(OC)cc21", "Mtb glucose medium": 3.38, "Mtb cholesterol medium": 0.9834}
{"structure": "CCOCCCNC(=O)C1(C)CCC(=O)N1c1ccccc1F", "stereo": "stereo not drawn", "Mtb glucose medium": -2.735, "Mtb cholesterol medium": 3.862}
{"structure": "COCc1noc(CCC(=O)c2ccc3c(c2)OCCO3)n1", "Mtb glucose medium": -16.08, "Mtb cholesterol medium": -7.318}
{"structure": "CCN(Cc1nc2c(cnn2C)c(=O)[nH]1)c1ccc(OC)c(OC)c1", "Mtb glucose medium": -10.15, "Mtb cholesterol medium": -12.87}
{"structure": "CN1CCCC1c1cncc(C(=O)NCC2CC2)n1", "stereo": "stereo not drawn", "Mtb glucose medium": -36.79, "Mtb cholesterol medium": -10.02}
{"structure": "CCOCCN1CCN(Cc2coc(-c3cccc(F)c3)n2)CC1", "Mtb glucose medium": 1.945, "Mtb cholesterol medium": -5.988}
{"structure": "CCOc1ccc(NC(=O)NC2CCc3[nH]ncc3C2)cn1", "stereo": "stereo not drawn", "Mtb glucose medium": -16.93, "Mtb cholesterol medium": -25.95}
{"structure": "COc1cccc(C(=O)N2CCCC(C(=O)CCc3ccccc3)C2)c1", "stereo": "stereo not drawn", "Mtb glucose medium": "4.648 & 19.56", "Mtb cholesterol medium": -19.9}
{"structure": "CC(NCc1ccc(C(C)(C)C)cc1)c1ccc(S(C)(=O)=O)cc1", "stereo": "stereo not drawn", "Mtb glucose medium": 37.51, "Mtb cholesterol medium": 44.02}
{"structure": "Cc1ccc(N2CC(c3nccc(C)n3)C2)nn1", "Mtb glucose medium": -29.79, "Mtb cholesterol medium": "-12.95 & -20.39"}
{"structure": "CC1(C)CN(C(=O)c2cnc(CN3CCCC3)s2)CC[C@]1(C)O", "Mtb glucose medium": "16.83 & 1.158", "Mtb cholesterol medium": 8.55}
{"structure": "CCNc1cc2c(nn1)CCN(C(=O)C1COc3ccccc3C1)C2", "stereo": "stereo not drawn", "Mtb glucose medium": 54.14, "Mtb cholesterol medium": 50.13}
{"structure": "OCC1(CC2CC2)CCCN(Cc2ccc(C(F)(F)F)nc2)C1", "stereo": "stereo not drawn", "Mtb glucose medium": -10.05, "Mtb cholesterol medium": 14.55}
{"structure": "COCC(c1cccc(C(F)(F)F)c1)N(C)C(=O)c1ccncc1", "stereo": "stereo not drawn", "Mtb glucose medium": -21.39, "Mtb cholesterol medium": -11.06}
{"structure": "COc1cc(CN2CCCC2)ccc1OC12CCCN(CC1)C2", "stereo": "stereo not drawn", "Mtb glucose medium": 23.6, "Mtb cholesterol medium": -13.04}
{"structure": "O=C(c1ccccn1)N1CCC(Oc2ncccc2Cl)CC1", "Mtb glucose medium": "22.26 & 38.97", "Mtb cholesterol medium": 31.25}
{"structure": "Cc1c(NCC(C)(C)C)cccc1C(=O)N(C)Cc1ncnn1C", "Mtb glucose medium": "-4.519 & -0.4208", "Mtb cholesterol medium": -25.39}
{"structure": "O=C(CCC1CCN(C(=O)c2csnn2)CC1)NCc1cccc(Cl)c1", "Mtb glucose medium": -12.13, "Mtb cholesterol medium": -2.41}
{"structure": "NC(=O)c1nc2c(s1)CCN(C(=O)Nc1ccccc1)CC2", "Mtb glucose medium": 0.8579, "Mtb cholesterol medium": 46.77}
{"structure": "COc1cc(CNCc2c(C)nn(C)c2N(C)C)ccn1", "Mtb glucose medium": 13.86, "Mtb cholesterol medium": 11.51}
{"structure": "O=S(=O)(c1ccc(C(F)(F)F)cc1)N1CCC(OCc2ccccn2)C1", "stereo": "stereo not drawn", "Mtb glucose medium": 26.99, "Mtb cholesterol medium": 17.35}
{"structure": "Cc1ncc(C(=O)N2CCCC2(C)C(=O)N2CCOCC2)c(C)n1", "stereo": "stereo not drawn", "Mtb glucose medium": 26.15, "Mtb cholesterol medium": 20.62}
{"structure": "COCCOc1ccnc(-c2noc([C@@H]3CCCN3CC(C)C)n2)c1", "Mtb glucose medium": "-18.33 & 6.386", "Mtb cholesterol medium": -20.37}
{"structure": "Cc1ccoc1C(=O)NCC(Cc1ccc(F)cc1)C(N)=O", "stereo": "stereo not drawn", "Mtb glucose medium": 16.31, "Mtb cholesterol medium": 2.43}
{"structure": "CC(c1nc(C(C)(C)C)no1)N1CCN(C(=O)CN2CCOCC2)CC1", "stereo": "stereo not drawn", "Mtb glucose medium": 28.68, "Mtb cholesterol medium": 26.66}
{"structure": "Cc1noc(-c2ccc(N[C@H]3CCCCNC3=O)nc2)n1", "Mtb glucose medium": 13.68, "Mtb cholesterol medium": -6.581}
{"structure": "COC(=O)[C@@H]1CN(S(=O)(=O)c2ccccc2)CCN1S(C)(=O)=O", "Mtb glucose medium": "12.1 & 3.656", "Mtb cholesterol medium": 9.637}
{"structure": "COCC1Cn2nnc(-c3cnn(C)c3)c2CN1Cc1ccsc1.O=C(O)C(F)(F)F", "stereo": "stereo not drawn", "Mtb glucose medium": 4.339, "Mtb cholesterol medium": "-2.393 & -9.299"}
{"structure": "COC(=O)c1ccc2nc(CO[C@H]3CN(CC4CC4)C[C@H]3F)[nH]c2c1", "Mtb glucose medium": "5.492 & 13.04", "Mtb cholesterol medium": 7.808}
{"structure": "CC(C)c1nn(C)c(N(C)C)c1CNC1CCCCNC1=O", "stereo": "stereo not drawn", "Mtb glucose medium": 10.96, "Mtb cholesterol medium": 21.95}
{"structure": "COCCCOC1CN(C(=O)c2[nH]nc3c2CCCC3)C1", "Mtb glucose medium": 2.394, "Mtb cholesterol medium": 8.098}

3 of the entries, repeated:

* [H][C@@]12CCN(S(=O)(=O)CCC)[C@]1([H])CC[C@H](c1nc(C)no1)O2 | Mtb glucose medium: -18.63%; Mtb cholesterol medium: -30.67%
* Cn1cc(C2=NOC(C(=O)NC3(c4cccc(F)c4)CCCC3)C2)cn1 (stereo not drawn) | Mtb glucose medium: 4.332%; Mtb cholesterol medium: 2.162% & -14.04%
* CCNc1cc2c(nn1)CCN(C(=O)C1COc3ccccc3C1)C2 (stereo not drawn) | Mtb glucose medium: 54.14%; Mtb cholesterol medium: 50.13%